Results as given in the supplement of paper PMC12819154, “High-throughput peptide-centric local stability assay extends protein–ligand identification to membrane proteins, tissues and bacteria” (Nature Structural & Molecular Biology, 2025).
This is one part of the list. Most entries show no effect beyond the scatter of the controls.

Amino acid sequences for entries named in this document (tags omitted). A change or cut given only in a name is not applied to a line headed by its entry.
UniProt Q80SY6: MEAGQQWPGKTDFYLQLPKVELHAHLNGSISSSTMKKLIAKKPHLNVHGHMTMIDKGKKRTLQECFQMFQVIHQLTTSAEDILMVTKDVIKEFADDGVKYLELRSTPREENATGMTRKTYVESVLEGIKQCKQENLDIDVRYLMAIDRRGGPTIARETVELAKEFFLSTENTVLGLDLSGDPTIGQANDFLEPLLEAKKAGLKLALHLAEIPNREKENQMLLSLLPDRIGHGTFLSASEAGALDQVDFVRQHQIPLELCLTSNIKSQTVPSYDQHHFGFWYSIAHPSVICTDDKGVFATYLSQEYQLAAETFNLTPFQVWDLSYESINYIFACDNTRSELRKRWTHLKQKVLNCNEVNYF
UniProt Q80X90, whole entry: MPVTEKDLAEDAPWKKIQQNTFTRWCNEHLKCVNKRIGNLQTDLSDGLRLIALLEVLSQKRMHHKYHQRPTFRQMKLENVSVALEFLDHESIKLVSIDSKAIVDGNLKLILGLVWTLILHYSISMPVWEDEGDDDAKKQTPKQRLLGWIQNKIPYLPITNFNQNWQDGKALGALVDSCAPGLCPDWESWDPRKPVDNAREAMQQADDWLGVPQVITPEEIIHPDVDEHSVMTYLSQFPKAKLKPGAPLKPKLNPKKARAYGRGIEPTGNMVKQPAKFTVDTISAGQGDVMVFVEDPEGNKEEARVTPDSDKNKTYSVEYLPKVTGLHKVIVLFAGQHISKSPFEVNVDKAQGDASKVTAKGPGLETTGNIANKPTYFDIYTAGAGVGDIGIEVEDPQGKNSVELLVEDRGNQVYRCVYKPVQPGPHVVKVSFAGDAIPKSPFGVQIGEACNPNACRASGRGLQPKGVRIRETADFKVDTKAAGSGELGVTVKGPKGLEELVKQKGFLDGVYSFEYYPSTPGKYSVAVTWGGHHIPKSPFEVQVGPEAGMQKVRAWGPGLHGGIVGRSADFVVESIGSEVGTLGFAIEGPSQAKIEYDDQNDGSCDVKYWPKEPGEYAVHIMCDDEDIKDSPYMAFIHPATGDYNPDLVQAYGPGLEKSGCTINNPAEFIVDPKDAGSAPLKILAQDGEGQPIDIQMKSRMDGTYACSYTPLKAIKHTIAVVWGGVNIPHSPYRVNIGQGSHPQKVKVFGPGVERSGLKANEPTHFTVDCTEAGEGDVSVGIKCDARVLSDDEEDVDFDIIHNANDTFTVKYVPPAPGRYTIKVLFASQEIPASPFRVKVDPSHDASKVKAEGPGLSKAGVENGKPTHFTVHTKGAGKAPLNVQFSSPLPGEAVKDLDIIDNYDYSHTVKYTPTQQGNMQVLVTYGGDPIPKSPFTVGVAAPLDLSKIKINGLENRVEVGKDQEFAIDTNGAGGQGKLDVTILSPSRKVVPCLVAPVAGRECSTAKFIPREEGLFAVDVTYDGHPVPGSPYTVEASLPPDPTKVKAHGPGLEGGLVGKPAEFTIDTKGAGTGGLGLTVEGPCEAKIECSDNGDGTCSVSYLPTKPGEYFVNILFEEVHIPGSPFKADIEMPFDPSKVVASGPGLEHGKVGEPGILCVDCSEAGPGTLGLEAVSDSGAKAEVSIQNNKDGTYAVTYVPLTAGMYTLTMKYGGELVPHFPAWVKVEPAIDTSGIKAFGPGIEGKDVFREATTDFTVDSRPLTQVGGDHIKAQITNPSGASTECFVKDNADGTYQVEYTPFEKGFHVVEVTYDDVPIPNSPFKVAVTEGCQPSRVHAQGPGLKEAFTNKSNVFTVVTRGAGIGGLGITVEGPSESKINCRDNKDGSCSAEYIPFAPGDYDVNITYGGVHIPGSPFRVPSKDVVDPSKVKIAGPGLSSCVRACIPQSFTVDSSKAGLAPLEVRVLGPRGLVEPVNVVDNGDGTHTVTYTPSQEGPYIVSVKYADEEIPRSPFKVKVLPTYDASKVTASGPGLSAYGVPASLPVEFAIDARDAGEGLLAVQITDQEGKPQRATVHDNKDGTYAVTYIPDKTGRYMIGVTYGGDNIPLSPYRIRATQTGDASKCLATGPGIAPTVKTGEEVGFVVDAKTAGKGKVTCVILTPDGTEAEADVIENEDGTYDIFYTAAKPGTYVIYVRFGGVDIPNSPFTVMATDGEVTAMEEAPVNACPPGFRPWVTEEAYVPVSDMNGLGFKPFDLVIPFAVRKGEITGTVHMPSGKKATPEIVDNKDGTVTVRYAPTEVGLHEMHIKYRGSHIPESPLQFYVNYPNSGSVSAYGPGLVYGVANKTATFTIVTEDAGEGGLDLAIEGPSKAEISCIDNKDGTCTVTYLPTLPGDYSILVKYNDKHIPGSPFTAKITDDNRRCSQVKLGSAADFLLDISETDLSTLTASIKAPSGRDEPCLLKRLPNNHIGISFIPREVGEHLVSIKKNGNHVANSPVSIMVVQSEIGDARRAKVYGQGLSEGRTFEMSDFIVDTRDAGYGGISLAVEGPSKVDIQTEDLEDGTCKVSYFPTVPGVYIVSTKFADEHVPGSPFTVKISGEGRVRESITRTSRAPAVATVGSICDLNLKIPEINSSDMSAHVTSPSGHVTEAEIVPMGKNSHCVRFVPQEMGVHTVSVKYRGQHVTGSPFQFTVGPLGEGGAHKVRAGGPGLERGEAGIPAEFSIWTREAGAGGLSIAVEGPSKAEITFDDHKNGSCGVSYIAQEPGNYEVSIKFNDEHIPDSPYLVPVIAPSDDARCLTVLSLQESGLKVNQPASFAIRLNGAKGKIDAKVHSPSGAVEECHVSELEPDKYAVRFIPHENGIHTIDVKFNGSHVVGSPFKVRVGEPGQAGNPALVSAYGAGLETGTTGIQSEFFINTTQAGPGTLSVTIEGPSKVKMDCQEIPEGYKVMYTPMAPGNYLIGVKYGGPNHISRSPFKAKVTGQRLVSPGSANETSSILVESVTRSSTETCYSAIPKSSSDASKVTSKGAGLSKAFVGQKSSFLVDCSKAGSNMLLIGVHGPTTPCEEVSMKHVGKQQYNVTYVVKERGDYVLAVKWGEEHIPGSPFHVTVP
UniProt Q8BG94, whole entry: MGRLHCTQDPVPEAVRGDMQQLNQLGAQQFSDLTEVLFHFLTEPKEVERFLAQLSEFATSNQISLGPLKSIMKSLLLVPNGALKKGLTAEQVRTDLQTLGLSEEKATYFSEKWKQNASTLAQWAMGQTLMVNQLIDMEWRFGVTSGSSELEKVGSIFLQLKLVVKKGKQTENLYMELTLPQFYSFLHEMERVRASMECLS
UniProt Q6NZN0: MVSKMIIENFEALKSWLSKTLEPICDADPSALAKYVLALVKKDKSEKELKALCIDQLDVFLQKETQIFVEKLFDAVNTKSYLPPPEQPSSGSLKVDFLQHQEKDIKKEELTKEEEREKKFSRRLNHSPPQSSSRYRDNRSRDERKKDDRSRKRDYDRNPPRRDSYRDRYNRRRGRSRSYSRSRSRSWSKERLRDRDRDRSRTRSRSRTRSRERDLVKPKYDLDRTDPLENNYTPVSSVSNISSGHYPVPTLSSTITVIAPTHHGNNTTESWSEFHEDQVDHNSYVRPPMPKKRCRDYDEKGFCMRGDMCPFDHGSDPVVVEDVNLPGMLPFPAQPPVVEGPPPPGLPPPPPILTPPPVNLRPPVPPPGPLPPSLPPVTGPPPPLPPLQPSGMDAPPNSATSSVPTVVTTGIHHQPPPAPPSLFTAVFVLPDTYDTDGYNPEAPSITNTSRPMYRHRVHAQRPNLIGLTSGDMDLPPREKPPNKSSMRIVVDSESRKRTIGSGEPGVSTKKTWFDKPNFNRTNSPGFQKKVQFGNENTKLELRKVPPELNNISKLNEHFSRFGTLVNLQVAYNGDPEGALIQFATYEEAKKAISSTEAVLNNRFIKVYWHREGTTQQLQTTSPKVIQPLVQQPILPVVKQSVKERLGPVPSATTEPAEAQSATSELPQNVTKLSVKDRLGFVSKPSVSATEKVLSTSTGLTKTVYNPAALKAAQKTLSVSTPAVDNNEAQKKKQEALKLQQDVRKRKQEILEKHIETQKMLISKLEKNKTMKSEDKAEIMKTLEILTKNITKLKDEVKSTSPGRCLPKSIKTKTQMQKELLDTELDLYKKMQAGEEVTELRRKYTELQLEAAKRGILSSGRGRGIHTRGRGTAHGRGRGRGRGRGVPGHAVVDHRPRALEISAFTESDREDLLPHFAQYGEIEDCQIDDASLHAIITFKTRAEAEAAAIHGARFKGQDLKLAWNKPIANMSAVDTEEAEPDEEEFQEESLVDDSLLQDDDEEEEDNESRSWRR
UniProt Q7TNC9: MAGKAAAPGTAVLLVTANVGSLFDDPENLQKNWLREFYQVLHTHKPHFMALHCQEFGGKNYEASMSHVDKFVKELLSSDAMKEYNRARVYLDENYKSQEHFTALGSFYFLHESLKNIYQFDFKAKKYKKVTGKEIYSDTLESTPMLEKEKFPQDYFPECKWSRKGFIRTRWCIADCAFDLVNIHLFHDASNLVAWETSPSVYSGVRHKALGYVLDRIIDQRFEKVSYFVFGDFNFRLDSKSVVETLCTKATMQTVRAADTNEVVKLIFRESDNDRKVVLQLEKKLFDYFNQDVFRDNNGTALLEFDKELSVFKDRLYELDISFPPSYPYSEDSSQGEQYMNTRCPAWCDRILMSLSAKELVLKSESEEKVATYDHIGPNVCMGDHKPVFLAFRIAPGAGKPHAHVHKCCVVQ
UniProt Q8BGL3: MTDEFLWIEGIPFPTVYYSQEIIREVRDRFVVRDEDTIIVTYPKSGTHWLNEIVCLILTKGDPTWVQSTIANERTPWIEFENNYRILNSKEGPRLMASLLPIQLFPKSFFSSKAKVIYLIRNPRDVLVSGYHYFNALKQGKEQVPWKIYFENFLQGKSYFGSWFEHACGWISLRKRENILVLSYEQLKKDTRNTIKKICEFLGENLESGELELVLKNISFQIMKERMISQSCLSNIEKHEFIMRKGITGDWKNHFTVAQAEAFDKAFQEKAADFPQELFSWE
UniProt Q6P6J9: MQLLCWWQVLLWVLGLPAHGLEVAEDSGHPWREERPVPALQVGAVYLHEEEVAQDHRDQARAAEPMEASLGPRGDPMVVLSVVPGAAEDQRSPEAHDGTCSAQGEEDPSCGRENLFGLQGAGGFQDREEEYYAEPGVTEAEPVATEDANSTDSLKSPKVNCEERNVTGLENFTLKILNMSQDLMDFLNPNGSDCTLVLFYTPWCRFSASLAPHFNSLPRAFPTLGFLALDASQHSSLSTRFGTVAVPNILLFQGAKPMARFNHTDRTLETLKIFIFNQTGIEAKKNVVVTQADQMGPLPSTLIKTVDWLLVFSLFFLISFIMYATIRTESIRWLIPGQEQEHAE
UniProt Q80UP8: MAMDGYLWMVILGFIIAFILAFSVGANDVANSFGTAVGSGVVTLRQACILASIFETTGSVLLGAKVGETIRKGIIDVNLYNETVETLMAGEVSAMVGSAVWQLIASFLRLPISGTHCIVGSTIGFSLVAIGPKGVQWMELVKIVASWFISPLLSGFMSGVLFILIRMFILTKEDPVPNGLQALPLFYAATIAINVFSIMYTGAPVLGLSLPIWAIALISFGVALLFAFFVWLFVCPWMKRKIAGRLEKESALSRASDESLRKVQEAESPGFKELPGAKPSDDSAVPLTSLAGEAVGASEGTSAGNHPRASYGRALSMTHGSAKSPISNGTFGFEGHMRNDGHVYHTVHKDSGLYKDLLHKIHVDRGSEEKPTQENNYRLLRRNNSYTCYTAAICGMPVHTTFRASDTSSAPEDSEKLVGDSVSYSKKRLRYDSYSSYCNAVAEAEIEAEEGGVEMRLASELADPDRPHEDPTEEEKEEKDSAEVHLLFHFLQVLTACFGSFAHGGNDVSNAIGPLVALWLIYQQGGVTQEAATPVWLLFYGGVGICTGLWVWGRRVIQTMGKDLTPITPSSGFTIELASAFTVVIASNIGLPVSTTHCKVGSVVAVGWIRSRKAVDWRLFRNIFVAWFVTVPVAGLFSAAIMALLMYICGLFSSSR
UniProt Q6PEV3: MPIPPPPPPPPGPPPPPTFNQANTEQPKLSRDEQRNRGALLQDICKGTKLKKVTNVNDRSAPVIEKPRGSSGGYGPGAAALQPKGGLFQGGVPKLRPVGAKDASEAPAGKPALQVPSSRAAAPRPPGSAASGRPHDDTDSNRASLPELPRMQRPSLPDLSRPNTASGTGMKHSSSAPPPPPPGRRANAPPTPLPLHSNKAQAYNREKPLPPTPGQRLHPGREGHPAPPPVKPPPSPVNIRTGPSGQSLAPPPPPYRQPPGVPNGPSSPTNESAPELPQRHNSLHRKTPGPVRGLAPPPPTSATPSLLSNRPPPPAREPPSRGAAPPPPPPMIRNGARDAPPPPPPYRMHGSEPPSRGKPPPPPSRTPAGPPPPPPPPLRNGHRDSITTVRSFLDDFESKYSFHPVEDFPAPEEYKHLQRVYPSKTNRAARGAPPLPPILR
UniProt Q80XU3: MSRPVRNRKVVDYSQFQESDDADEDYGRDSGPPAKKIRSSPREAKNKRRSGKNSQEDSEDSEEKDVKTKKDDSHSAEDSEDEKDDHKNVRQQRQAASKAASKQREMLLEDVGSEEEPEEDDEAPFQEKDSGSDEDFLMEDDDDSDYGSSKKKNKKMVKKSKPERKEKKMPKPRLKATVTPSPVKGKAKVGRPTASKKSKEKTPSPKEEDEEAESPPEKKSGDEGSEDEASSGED
UniProt Q78IK2: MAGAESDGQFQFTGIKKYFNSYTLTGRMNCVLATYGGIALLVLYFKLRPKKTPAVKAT

Compound: CN[C@@H]1C[C@H]2O[C@@](C)([C@@H]1OC)n1c3ccccc3c3c4c(c5c6ccccc6n2c5c31)C(=O)NC4 [staurosporine]
Test: log2 fold change of pooled soluble protein (PISA), ligand vs vehicle (log2 ratio); higher = more thermally stabilized
Conditions: ligand concentration: 20 uM; assay format: PISA pool 52.9/55.5/58.6 C

| Target | log2 fold change of pooled soluble protein |
| --- | --- |
| UniProt Q80YR4 | -0.224 |
| UniProt Q6P8J7 | -0.0842 |
| UniProt Q6ZWX6 | 0.0159 |
| UniProt Q76MZ3 | 0.00147 |
| UniProt Q6PB44 | -0.288 |
| UniProt Q80U30 | -0.0209 |
| UniProt Q80XA6 | 0.0794 |
| UniProt Q7TPM1 | 0.00256 |
| UniProt Q8BGB8 | 0.0127 |
| UniProt Q80ZM7 | 0.0109 |
| UniProt Q6PAV2 | 0.162 |
| UniProt Q80SY6 | -0.141 |
| UniProt Q80X80 | -0.0543 |
| UniProt Q8BFR5 | -0.123 |
| UniProt Q7TMC8 | 0.0133 |
| UniProt Q7TNE1 | -0.195 |
| UniProt Q6NZJ6 | 0.0175 |
| UniProt Q80X90 | -0.0334 |
| UniProt Q8BGQ7 | -0.00486 |
| UniProt Q78T54 | -0.317 |
| UniProt Q7TMQ7 | -0.17 |
| UniProt Q6PGB6 | -0.0338 |
| UniProt Q6ZQB6 | 0.203 |
| UniProt Q7TT18 | 0.0325 |

| Target | log2 fold change of pooled soluble protein |
| --- | --- |
| UniProt Q80UY2 | 0.0644 |
| UniProt Q6PDE7 | 0.0484 |
| UniProt Q8BG94 | -0.0223 |
| UniProt Q7TMK6 | -0.219 |
| UniProt Q7TSI3 | 0.00672 |
| UniProt Q6NZN0 | -0.242 |
| UniProt Q6NZF1 | -0.0906 |
| UniProt Q80TH2 | -0.138 |
| UniProt Q7TNC9 | -0.106 |
| UniProt Q80U44 | 0.011 |
| UniProt Q8BGD9 | 0.000999 |
| UniProt Q80W93 | 0.183 |
| UniProt Q6P2B1 | -0.0322 |
| UniProt Q6R891 | -0.0114 |
| UniProt Q6PAM1 | 0.0513 |
| UniProt Q8BFW7 | -0.121 |
| UniProt Q8BGF3 | 0.142 |
| UniProt Q8BG32 | -0.0651 |
| UniProt Q7JJ13 | -0.0508 |
| UniProt Q8BGF9 | 0.121 |
| UniProt Q7TNG8 | 0.0655 |
| UniProt Q8BFP9 | 0.0706 |
| UniProt Q70FJ1 | -0.135 |
| UniProt Q8BGL3 | -0.211 |

An excerpt from further up:

| Target | log2 fold change of pooled soluble protein |
| --- | --- |
| UniProt Q7TNG8 | 0.0655 |
| UniProt Q8BFP9 | 0.0706 |
| UniProt Q70FJ1 | -0.135 |

The list goes on.

| Target | log2 fold change of pooled soluble protein |
| --- | --- |
| UniProt Q6ZQ38 | 0.0363 |
| UniProt Q80W47 | -0.257 |
| UniProt Q6P6J9 | -0.0976 |
| UniProt Q6P6M7 | -0.00163 |
| UniProt Q6P5F9 | 0.332 |
| UniProt Q80WT5 | 0.0149 |
| UniProt Q71LX4 | 0.0276 |
| UniProt Q80UP8 | -0.172 |
| UniProt Q6Q899 | -0.0808 |
| UniProt Q78S06 | -0.3 |
| UniProt Q80TY0 | 0.0781 |
| UniProt Q6PAR5 | -0.0175 |
| UniProt Q7TT50 | 0.138 |
| UniProt Q6P4T2 | -0.0962 |
| UniProt Q6PB66 | -0.0904 |
| UniProt Q6PEV3 | -0.0973 |
| UniProt Q80XU3 | -0.306 |
| UniProt Q6P6M5 | -0.122 |
| UniProt Q6PFD9 | -0.11 |
| UniProt Q80XQ2 | 0.00771 |
| UniProt Q6ZPJ3 | 0.194 |
| UniProt Q78IK2 | -0.268 |
